# Assay results published in the supplement of paper PMC10032668.
# By UniProt entry, the sequences of proteins in these tests, tags left out.
# EP400, Q96L91, UniProt Q96L91, whole entry: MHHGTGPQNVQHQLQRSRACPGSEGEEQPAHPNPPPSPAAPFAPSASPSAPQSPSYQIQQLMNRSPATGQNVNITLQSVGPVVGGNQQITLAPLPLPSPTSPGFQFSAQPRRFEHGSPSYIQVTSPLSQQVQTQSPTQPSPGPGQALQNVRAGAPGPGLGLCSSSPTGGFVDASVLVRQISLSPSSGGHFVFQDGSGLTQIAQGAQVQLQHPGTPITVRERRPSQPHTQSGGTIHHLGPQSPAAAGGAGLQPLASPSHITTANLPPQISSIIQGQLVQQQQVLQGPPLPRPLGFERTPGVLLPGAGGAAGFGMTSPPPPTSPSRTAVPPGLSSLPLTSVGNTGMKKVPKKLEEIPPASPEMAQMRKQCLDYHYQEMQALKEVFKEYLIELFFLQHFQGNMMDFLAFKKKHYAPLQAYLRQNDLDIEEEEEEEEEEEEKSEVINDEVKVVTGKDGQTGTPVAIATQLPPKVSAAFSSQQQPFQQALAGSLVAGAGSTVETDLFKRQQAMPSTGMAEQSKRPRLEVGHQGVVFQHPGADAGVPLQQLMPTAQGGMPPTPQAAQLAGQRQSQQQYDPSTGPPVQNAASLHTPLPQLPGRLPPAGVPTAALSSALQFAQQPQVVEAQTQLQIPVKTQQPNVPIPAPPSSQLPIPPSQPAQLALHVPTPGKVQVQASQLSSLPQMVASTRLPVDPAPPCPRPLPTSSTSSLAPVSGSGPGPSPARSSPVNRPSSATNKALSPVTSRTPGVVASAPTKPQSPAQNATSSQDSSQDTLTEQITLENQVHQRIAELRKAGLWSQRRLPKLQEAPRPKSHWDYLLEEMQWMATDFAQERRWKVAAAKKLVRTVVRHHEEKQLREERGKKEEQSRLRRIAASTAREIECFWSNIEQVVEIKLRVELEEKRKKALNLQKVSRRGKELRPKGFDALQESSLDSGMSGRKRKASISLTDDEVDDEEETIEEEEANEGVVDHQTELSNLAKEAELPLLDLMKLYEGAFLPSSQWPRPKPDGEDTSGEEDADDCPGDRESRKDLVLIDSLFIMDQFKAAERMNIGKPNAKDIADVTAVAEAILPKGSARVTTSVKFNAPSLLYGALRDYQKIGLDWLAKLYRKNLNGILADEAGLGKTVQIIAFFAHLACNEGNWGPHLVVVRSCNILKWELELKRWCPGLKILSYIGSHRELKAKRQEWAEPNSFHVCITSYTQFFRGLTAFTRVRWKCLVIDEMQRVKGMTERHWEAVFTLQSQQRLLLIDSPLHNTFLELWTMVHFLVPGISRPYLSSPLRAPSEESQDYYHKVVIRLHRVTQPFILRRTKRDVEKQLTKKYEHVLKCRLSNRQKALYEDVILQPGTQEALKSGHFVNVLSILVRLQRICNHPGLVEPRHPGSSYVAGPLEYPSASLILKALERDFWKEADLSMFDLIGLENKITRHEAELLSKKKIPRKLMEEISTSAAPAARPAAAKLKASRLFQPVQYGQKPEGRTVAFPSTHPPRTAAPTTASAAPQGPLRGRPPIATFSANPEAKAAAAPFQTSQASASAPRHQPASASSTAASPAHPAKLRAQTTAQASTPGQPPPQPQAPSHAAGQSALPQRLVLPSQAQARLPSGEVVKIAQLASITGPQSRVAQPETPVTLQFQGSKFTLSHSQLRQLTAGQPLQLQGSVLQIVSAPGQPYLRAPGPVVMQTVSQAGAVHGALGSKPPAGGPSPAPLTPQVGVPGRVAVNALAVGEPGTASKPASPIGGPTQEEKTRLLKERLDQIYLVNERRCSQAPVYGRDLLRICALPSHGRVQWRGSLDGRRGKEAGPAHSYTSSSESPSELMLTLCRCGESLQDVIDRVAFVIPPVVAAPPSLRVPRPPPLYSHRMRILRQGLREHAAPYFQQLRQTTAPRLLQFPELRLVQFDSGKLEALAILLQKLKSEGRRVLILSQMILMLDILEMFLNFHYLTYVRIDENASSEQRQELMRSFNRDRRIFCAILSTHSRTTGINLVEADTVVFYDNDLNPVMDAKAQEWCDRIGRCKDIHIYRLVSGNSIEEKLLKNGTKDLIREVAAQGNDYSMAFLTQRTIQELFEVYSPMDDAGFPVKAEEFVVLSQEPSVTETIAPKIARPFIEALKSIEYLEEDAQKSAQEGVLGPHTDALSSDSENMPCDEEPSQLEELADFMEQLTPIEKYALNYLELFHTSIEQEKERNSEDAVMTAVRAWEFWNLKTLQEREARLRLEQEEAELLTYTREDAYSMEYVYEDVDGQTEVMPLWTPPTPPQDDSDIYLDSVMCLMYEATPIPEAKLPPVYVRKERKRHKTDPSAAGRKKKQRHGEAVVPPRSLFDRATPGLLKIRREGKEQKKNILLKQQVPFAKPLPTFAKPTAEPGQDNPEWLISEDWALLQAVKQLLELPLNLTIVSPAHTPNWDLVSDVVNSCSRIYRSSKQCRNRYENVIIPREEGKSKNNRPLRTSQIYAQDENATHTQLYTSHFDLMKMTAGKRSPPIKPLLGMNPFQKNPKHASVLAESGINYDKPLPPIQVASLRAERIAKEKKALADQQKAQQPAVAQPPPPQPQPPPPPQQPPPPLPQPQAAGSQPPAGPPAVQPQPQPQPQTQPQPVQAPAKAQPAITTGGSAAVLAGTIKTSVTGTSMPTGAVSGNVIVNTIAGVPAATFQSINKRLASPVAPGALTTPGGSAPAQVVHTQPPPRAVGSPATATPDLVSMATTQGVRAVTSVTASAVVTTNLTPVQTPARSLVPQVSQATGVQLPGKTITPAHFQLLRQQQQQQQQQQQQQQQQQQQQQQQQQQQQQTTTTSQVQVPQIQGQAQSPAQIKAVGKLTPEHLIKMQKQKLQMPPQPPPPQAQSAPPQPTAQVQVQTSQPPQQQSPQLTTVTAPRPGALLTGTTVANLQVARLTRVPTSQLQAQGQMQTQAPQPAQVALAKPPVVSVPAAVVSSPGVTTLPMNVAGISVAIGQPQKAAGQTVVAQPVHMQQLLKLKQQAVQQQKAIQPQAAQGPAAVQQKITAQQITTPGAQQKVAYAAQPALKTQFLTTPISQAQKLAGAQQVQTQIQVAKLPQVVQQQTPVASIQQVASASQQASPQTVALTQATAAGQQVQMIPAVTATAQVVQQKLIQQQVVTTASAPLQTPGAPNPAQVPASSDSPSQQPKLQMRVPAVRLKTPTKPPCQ
# MECP2, P51608, UniProt P51608, whole entry: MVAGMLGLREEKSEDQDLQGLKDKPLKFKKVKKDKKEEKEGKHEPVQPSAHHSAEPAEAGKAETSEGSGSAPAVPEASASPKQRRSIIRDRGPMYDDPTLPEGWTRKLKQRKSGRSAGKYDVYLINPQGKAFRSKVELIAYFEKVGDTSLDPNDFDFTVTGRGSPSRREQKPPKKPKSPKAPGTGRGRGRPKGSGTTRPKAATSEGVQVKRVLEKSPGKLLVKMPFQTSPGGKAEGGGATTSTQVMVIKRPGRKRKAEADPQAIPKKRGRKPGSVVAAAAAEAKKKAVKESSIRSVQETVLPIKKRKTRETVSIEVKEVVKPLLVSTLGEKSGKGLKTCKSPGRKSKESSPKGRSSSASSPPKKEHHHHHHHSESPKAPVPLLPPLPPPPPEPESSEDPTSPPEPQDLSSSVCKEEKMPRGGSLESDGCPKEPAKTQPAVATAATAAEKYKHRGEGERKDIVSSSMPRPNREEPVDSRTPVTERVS
# ATP6V0D1, P61421, UniProt P61421, whole entry: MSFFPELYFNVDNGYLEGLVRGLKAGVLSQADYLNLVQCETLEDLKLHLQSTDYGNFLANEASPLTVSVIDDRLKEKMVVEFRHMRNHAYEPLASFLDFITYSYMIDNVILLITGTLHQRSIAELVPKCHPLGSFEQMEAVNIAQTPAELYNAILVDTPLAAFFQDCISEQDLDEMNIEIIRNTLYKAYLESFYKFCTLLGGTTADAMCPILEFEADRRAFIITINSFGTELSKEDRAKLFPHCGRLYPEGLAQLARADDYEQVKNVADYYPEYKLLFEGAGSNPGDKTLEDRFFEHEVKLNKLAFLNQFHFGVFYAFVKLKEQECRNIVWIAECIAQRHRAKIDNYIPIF
# NDUFS2, O75306, UniProt O75306, whole entry: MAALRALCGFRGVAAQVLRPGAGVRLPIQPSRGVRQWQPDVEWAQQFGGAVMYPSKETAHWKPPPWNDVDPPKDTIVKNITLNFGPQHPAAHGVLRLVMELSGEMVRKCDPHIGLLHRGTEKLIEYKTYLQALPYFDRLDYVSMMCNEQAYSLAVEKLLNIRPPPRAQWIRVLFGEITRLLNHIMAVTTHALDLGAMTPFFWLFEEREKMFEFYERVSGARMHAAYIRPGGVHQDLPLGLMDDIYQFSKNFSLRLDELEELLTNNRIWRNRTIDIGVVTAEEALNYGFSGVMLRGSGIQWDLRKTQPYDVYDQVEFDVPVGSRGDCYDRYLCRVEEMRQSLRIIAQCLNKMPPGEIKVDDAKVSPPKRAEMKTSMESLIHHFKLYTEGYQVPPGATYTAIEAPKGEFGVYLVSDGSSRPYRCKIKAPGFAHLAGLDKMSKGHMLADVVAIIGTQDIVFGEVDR
# Some of the results follow. Only hits are listed; about a third recur on repeated control peptides.
# Experiments:
# Test in all cases: PRISMA enrichment of interactor (LFQ) in peptide spot vs all other peptide spots (log2 fold change); higher = stronger / more specific binding of the interactor to the peptide
# ALG6, Q9Y672 = target: ALG6, Q9Y672
# Method: (§1)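 PRISMA: 15-aa overlapping tiles (offset 8 aa) of 60 microproteins, plus SOS1/GLUT1 control peptides, were spot-synthesized on cellulose membranes in triplicate. Membranes were incubated with benzonase-treated HEK293T lysate, and bound proteins were identified by LC-MS/MS with LFQ. Enrichment is the log2 fold change of each protein in one spot versus all other spots. Only interactors passing the significance cutoff are listed.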
# C1QBP, Q07021 = target: C1QBP, Q07021
# Method: as §1
# EAPP, Q56P03 = target: EAPP, Q56P03
# Method: as §1
# FYTTD1, Q96QD9 = target: FYTTD1, Q96QD9
# Method: as §1
# HSD17B12, Q53GQ0 = target: HSD17B12, Q53GQ0
# Method: as §1
# HSPA4, P34932 = target: HSPA4, P34932
# Method: as §1
# LRFN3, Q9BTN0 = target: LRFN3, Q9BTN0
# Method: as §1
# MRPL14, Q6P1L8 = target: MRPL14, Q6P1L8
# Method: as §1
# MRPL27, Q9P0M9 = target: MRPL27, Q9P0M9
# Method: as §1
# MYCBP2, O75592 = target: MYCBP2, O75592
# Method: as §1
# P4HB, P07237 = target: P4HB, P07237
# Method: as §1
# PDCD6IP, Q8WUM4 = target: PDCD6IP, Q8WUM4
# Method: as §1
# SPTY2D1, Q68D10 = target: SPTY2D1, Q68D10
# Method: as §1
# TEX264, Q9Y6I9 = target: TEX264, Q9Y6I9
# Method: as §1
# VARS, P26640 = target: VARS, P26640
# Method: as §1
# ZNF24, P17028 = target: ZNF24, P17028
# Method: as §1
# ALKBH2, Q6NS38 = target: ALKBH2, Q6NS38
# Method: as §1
# CRTAP, O75718 = target: CRTAP, O75718
# Method: as §1
# CTBP1, Q13363 = target: CTBP1, Q13363
# Method: as §1
# EP400, Q96L91 = target: EP400, Q96L91
# Method: as §1
# FARSA, Q9Y285 = target: FARSA, Q9Y285
# Method: as §1
# GPBP1, Q86WP2 = target: GPBP1, Q86WP2
# Method: as §1
# MECP2, P51608 = target: MECP2, P51608
# Method: as §1
# NUP54, Q7Z3B4 = target: NUP54, Q7Z3B4
# Method: as §1
# SFSWAP, Q12872 = target: SFSWAP, Q12872
# Method: as §1
# ATP6V0D1, P61421 = target: ATP6V0D1, P61421
# Method: as §1
# DDX49, Q9Y6V7 = target: DDX49, Q9Y6V7
# Method: as §1
# FLNB, O75369 = target: FLNB, O75369
# Method: as §1
# OPA1, O60313 = target: OPA1, O60313
# Method: as §1
# ORC4, O43929 = target: ORC4, O43929
# Method: as §1
# SCP2, P22307 = target: SCP2, P22307
# Method: as §1
# TSR1, Q2NL82 = target: TSR1, Q2NL82
# Method: as §1
# TARS, P26639 = target: TARS, P26639
# Method: as §1
# TMEM41A, Q96HV5 = target: TMEM41A, Q96HV5
# Method: as §1
# TRA2A, Q13595 = target: TRA2A, Q13595
# Method: as §1
# TRA2B, P62995 = target: TRA2B, P62995
# Method: as §1
# UBAC2, Q8NBM4 = target: UBAC2, Q8NBM4
# Method: as §1
# YWHAG, P61981 = target: YWHAG, P61981
# Method: as §1
# ALDOB, P05062 = target: ALDOB, P05062
# Method: as §1
# APOA4, P06727 = target: APOA4, P06727
# Method: as §1
# HOMER1, Q86YM7 = target: HOMER1, Q86YM7
# Method: as §1
# NDUFS2, O75306 = target: NDUFS2, O75306
# Method: as §1
# NMD3, Q96D46 = target: NMD3, Q96D46
# Method: as §1
# PDCD6, O75340 = target: PDCD6, O75340
# Method: as §1
# RPP38, P78345 = target: RPP38, P78345
# Method: as §1
# SLC25A22, Q9H936 = target: SLC25A22, Q9H936
# Method: as §1
binder,measurement,setting,value
LGAQARPPRRAPGGR [TUG1],PRISMA enrichment of interactor (log2),"ALG6, Q9Y672",4.27
same,PRISMA enrichment of interactor (log2),"C1QBP, Q07021",6.16
same,PRISMA enrichment of interactor (log2),"EAPP, Q56P03",5.94
same,PRISMA enrichment of interactor (log2),"FYTTD1, Q96QD9",6.65
same,PRISMA enrichment of interactor (log2),"HSD17B12, Q53GQ0",5.15
same,PRISMA enrichment of interactor (log2),"HSPA4, P34932",5.49
same,PRISMA enrichment of interactor (log2),"LRFN3, Q9BTN0",3.8
same,PRISMA enrichment of interactor (log2),"MRPL14, Q6P1L8",4.94
same,PRISMA enrichment of interactor (log2),"MRPL27, Q9P0M9",8.26
same,PRISMA enrichment of interactor (log2),"MYCBP2, O75592",7.67
same,PRISMA enrichment of interactor (log2),"P4HB, P07237",6.18
same,PRISMA enrichment of interactor (log2),"PDCD6IP, Q8WUM4",4.59
same,PRISMA enrichment of interactor (log2),"SPTY2D1, Q68D10",5.28
same,PRISMA enrichment of interactor (log2),"TEX264, Q9Y6I9",5.36
same,PRISMA enrichment of interactor (log2),"VARS, P26640",5.05
same,PRISMA enrichment of interactor (log2),"ZNF24, P17028",5.29
LLGWQANRLRRRYLD [MTLN],PRISMA enrichment of interactor (log2),"ALKBH2, Q6NS38",6.17
same,PRISMA enrichment of interactor (log2),"CRTAP, O75718",4.66
same,PRISMA enrichment of interactor (log2),"CTBP1, Q13363",3.92
same,PRISMA enrichment of interactor (log2),"EP400, Q96L91",5.05
same,PRISMA enrichment of interactor (log2),"FARSA, Q9Y285",4.16
same,PRISMA enrichment of interactor (log2),"GPBP1, Q86WP2",3.91
same,PRISMA enrichment of interactor (log2),"MECP2, P51608",3.99
same,PRISMA enrichment of interactor (log2),"NUP54, Q7Z3B4",4.68
same,PRISMA enrichment of interactor (log2),"SFSWAP, Q12872",6.72
EPGSIFMPLSEPPSD [NAV2-AS2_2],PRISMA enrichment of interactor (log2),"ALKBH2, Q6NS38",4.45
same,PRISMA enrichment of interactor (log2),"ATP6V0D1, P61421",6.14
same,PRISMA enrichment of interactor (log2),"DDX49, Q9Y6V7",5.65
same,PRISMA enrichment of interactor (log2),"FLNB, O75369",4.36
same,PRISMA enrichment of interactor (log2),"OPA1, O60313",5.95
same,PRISMA enrichment of interactor (log2),"ORC4, O43929",5.54
same,PRISMA enrichment of interactor (log2),"SCP2, P22307",5.48
same,PRISMA enrichment of interactor (log2),"TSR1, Q2NL82",5.51
WINVSTWASWVSRTS [RP11-432J24.5_2],PRISMA enrichment of interactor (log2),"TARS, P26639",6.05
same,PRISMA enrichment of interactor (log2),"TMEM41A, Q96HV5",4.45
same,PRISMA enrichment of interactor (log2),"TRA2A, Q13595",4.54
same,PRISMA enrichment of interactor (log2),"TRA2B, P62995",5.61
same,PRISMA enrichment of interactor (log2),"UBAC2, Q8NBM4",4.19
same,PRISMA enrichment of interactor (log2),"YWHAG, P61981",5.05
MSRKKAQPAGLSWKP [RP11-140K17.3_2],PRISMA enrichment of interactor (log2),"ALDOB, P05062",4.19
same,PRISMA enrichment of interactor (log2),"APOA4, P06727",5.1
same,PRISMA enrichment of interactor (log2),"HOMER1, Q86YM7",7.17
same,PRISMA enrichment of interactor (log2),"NDUFS2, O75306",6.38
same,PRISMA enrichment of interactor (log2),"NMD3, Q96D46",9.97
same,PRISMA enrichment of interactor (log2),"PDCD6, O75340",5.07
same,PRISMA enrichment of interactor (log2),"RPP38, P78345",4.39
same,PRISMA enrichment of interactor (log2),"SLC25A22, Q9H936",5.65

# Given tab-delimited: part of the list above.
binder	measurement	setting	value
LGAQARPPRRAPGGR [TUG1]	PRISMA enrichment of interactor (log2)	FYTTD1, Q96QD9	6.65
same	PRISMA enrichment of interactor (log2)	HSD17B12, Q53GQ0	5.15

# Laid out differently: results already given
binder	measurement	setting	value
LGAQARPPRRAPGGR [TUG1]	PRISMA enrichment of interactor (log2)	EAPP, Q56P03	5.94
EPGSIFMPLSEPPSD [NAV2-AS2_2]	PRISMA enrichment of interactor (log2)	FLNB, O75369	4.36
